Test system: Rabbit αvβ3
Experiment: 125-labeled Vitaxin binding affinities and number of binding sites on cell lines
Source text: ^125-labeled Vitaxin® was used to determine binding affinities and number of binding sites for human, rabbit and hamster cell lines. The affinity of Vitaxin® for hamster αvβ3 was approximately 2-3 fold lower than human αvβ3 while its affinity for rabbit αvβ3 was about 4-10 fold lower than human αvβ3.

B1: Vitaxin®: humanized blocking monoclonal antibody that binds Integrin αVβ3 (MEDI-522, MedImmune); humanized and optimized version of LM609 (antibody, chains of the INN, looked up, V domains shown)
VH: QVQLVESGGGVVQPGRSLRLSCAASGFTFSSYDMSWVRQAPGKGLEWVAKVSSGGGSTYYLDTVQGRFTISRDNSKNTLYLQMNSLRAEDTAVYYCARHLHGSFASWGQGTTVTVSS
VL: EIVLTQSPATLSLSPGERATLSCQASQSISNFLHWYQQRPGQAPRLLIRYRSQSISGIPARFSGSGSGTDFTLTISSLEPEDFAVYYCQQSGSWPLTFGGGTKVEIK
For B1, the “Binding Sites” value (Rabbit RK1 kidney epithelium) was 4.2 × 10^4 and the “Binding Sites” value (Rabbit VX7 carcinoma) was 1.6 × 10^5.
